Test results from PMC7862700.
The entries are a selection whose mix differs from that of the whole data set. At the low end of the ranking the order means little.

By UniProt entry, the sequences of proteins in these tests, tags left out. Where a name states a change or a piece, a line headed by the entry shows the natural chain unless it says otherwise.
UniProt Q9Y603: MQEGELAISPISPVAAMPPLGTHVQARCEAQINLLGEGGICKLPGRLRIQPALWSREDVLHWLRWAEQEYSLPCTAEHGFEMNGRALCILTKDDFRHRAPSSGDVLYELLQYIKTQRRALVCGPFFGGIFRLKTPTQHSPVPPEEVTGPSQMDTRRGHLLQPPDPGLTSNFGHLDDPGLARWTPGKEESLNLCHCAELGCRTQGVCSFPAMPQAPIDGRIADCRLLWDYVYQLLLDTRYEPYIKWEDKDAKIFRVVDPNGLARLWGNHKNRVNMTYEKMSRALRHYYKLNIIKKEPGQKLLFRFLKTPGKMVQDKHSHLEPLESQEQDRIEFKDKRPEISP
UniProt P41212: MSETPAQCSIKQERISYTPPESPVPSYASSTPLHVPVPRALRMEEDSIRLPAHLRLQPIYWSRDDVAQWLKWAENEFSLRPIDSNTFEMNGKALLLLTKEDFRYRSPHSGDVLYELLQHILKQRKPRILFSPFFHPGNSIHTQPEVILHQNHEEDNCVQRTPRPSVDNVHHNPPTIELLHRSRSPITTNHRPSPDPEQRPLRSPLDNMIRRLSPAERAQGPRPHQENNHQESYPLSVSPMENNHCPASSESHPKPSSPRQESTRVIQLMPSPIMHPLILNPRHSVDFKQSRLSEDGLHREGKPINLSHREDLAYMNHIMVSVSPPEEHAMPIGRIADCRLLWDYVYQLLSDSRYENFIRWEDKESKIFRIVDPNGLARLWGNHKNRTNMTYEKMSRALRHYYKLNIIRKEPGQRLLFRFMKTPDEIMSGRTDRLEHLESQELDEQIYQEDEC

What follows are sequences tested against ETV7 (UniProt Q9Y603) (assay: DAPPL (digital affinity profiling via proximity ligation, sequencing)). Details: 10 mM Tris-HCl pH 7.5, 50 mM NaCl, 1 mM DTT, 4% glycerol, room temperature, 30 min; GST-TFs on glutathione beads, 16-mer random dsDNA library, 0.1% …; high values mean tight binding; double strand, one strand shown; scale: fold enrichment (6-mer frequency, TF over GST control).
Sequence CTTTGA has a binding signal of 1.34.
Work on ATAGGT yielded a binding signal of 1.17.
With TAGTAG the binding signal was 0.994.
With ACGAGC the binding signal was 0.943.
GGATGG was tested, and the binding signal was 1.06.
For TTGGAT, the binding signal was 1.01.
Work on ACCAAG yielded a binding signal of 0.852.
ATAGCG was tested, and the binding signal was 0.975.
GTCAAA gave a binding signal of 0.974.
In the case of TACGAG, the binding signal is reported as 0.975.
ATGAGG was tested, and the binding signal was 0.927.
For TCAGTA, the binding signal was 0.948.
Sequence AGTTAT has a binding signal of 0.928.
CTCTCT gave a binding signal of 1.56.
TGTGCA showed a binding signal of 0.912.
In the case of GAGCTT, the binding signal is reported as 0.963.
TGGATC showed a binding signal of 0.884.
For CATGCG, the binding signal was 1.21.
With TAGTCA the binding signal was 0.874.
Sequence GCTGCT has a binding signal of 1.21.
CCCTAG was tested, and the binding signal was 0.88.
In the case of GACTAT, the binding signal is reported as 0.839.
GAATGC showed a binding signal of 1.03.
TGATAC showed a binding signal of 0.991.
Sequence GTGTTA has a binding signal of 0.986.
TGGGTG gave a binding signal of 0.978.
TATAGA showed a binding signal of 1.08.
Sequence CAATTC has a binding signal of 1.24.
For CTAGTG, the binding signal was 0.9.
ACCCGA showed a binding signal of 1.11.
For ATATCA, the binding signal was 1.13.
CCCACC showed a binding signal of 1.08.
Work on CGACAT yielded a binding signal of 1.23.
Sequence TCAATC has a binding signal of 1.01.
With ATCCTA the binding signal was 1.37.
In the case of ACACGC, the binding signal is reported as 0.986.
Sequence TGAAAT has a binding signal of 0.949.
In the case of GTGGTT, the binding signal is reported as 0.948.
AGAAGA showed a binding signal of 1.01.

The sequences below were run against ETV6 (UniProt P41212) in the same assay as above. Details: 10 mM Tris-HCl pH 7.5, 50 mM NaCl, 1 mM DTT, 4% glycerol, room temperature, 30 min; GST-TFs on glutathione beads, 16-mer random dsDNA library, 0.1% …; high values mean tight binding; double strand, one strand shown; scale: fold enrichment (6-mer frequency, TF over GST control).
Sequence CTTTGA has a binding signal of 1.25.
ATAGGT gave a binding signal of 0.954.
In the case of TAGTAG, the binding signal is reported as 0.995.
For ACGAGC, the binding signal was 0.925.
GGATGG showed a binding signal of 0.943.
TTGGAT gave a binding signal of 0.979.
With ACCAAG the binding signal was 0.918.
With ATAGCG the binding signal was 0.977.
GTCAAA gave a binding signal of 0.946.
With TACGAG the binding signal was 0.973.
Work on ATGAGG yielded a binding signal of 0.954.
With TCAGTA the binding signal was 0.931.
Work on AGTTAT yielded a binding signal of 0.97.
CTCTCT was tested, and the binding signal was 1.59.
Work on TGTGCA yielded a binding signal of 1.
Work on GAGCTT yielded a binding signal of 0.922.
TGGATC was tested, and the binding signal was 0.917.
With CATGCG the binding signal was 1.16.
In the case of TAGTCA, the binding signal is reported as 0.828.
In the case of GCTGCT, the binding signal is reported as 1.27.
CCCTAG was tested, and the binding signal was 0.921.
Work on GACTAT yielded a binding signal of 0.925.
GAATGC showed a binding signal of 1.01.
TGATAC was tested, and the binding signal was 1.1.
GTGTTA was tested, and the binding signal was 0.937.
Sequence TGGGTG has a binding signal of 1.21.
Sequence TATAGA has a binding signal of 1.11.
Sequence CAATTC has a binding signal of 1.16.
CTAGTG gave a binding signal of 0.805.
For ACCCGA, the binding signal was 1.04.
ATATCA was tested, and the binding signal was 1.18.
In the case of CCCACC, the binding signal is reported as 1.12.
In the case of CGACAT, the binding signal is reported as 1.42.
TCAATC was tested, and the binding signal was 1.06.
With ATCCTA the binding signal was 1.34.
ACACGC gave a binding signal of 1.13.
In the case of TGAAAT, the binding signal is reported as 0.952.
Sequence GTGGTT has a binding signal of 0.929.
AGAAGA showed a binding signal of 0.934.
